The other results are listed elsewhere or left out. The main result of the screen is listed elsewhere. These columns were measured beside it and carry no call. Most of these compounds were active or inconclusive in the main read-out, so they are no random draw. The note in brackets gives the kind of curve behind each potency; many fits are weak.

Among the data in PubChem BioAssay AID2685 (National Center for Advancing Translational Sciences (NCATS), 2010) are cell number change and AC50 values, retold here.

The test in a line: qHTS Assay for Lipid Storage Modulators in Drosophila S3 Cells.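 On cell number change: cells counted by Cell Tracker Red CMTPX staining in the red channel.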 To be noted: BODIPY lipid droplet fluorescence, 18-24 h; for cell number change: measured here: cell count max response, cells fed with added oleic acid. In a few lines:
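Drosophila S3 cells loaded with oleic acid (400 uM, as added) and compounds at several concentrations; lipid droplets imaged by 488-nm laser-scanning cytometry, 500–530 nm intensity and object ratio to cell channel. Percent activity normalized to 20 uM Triacsin C.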
On the technique in general: In qHTS, concentration-response curves come from the screen itself.

The mark [1] stands for this setting: measured here: cell number channel AC50, cells fed with added oleic acid.
The mark [2] stands for this setting: measured here: lipid fluorescence (Fed channel) AC50, cells fed with added oleic acid.

As for `COc1cc(/C=N/NC(N)=S)ccc1OCC(=O)Nc1ccc(C)cc1`, the cell number change was -35.3%. Further, the AC50 – broadly, the concentration at which the activity in the assay is half-maximal – under setting [1] was 32.6 µM [falling, single point].

As to `Cc1cc(NC(=O)CSc2ncnc3sc4c(c23)CCC(C)C4)no1` (centres undefined), the cell number change worked out at 22.7%. Also, under setting [2], the half-maximal activity concentration (AC50) is 3.66 µM [rising, single point].

Consider `CSc1ccccc1NC(=O)COC(=O)Cc1cccs1`, for which the cell number change was -31.9%. Also, under setting [1], the AC50 is 22.4 µM [falling, partial curve]. For the same compound, the AC50 under setting [2] is 35.5 µM [falling, single point].

On to `CC1(NC(=O)Cc2csc(-c3cccc(Cl)c3)n2)CCS(=O)(=O)C1` (centres undefined), for which the cell number change is 40.7%. In addition, the AC50 under setting [1] was 13 µM [rising, partial curve, poor fit]. The half-maximal activity concentration (AC50) under setting [2] is 0.00461 µM [rising, full curve, poor fit].

As to `COc1ccccc1NC(=O)c1ccc(CS(=O)(=O)c2ccc(C)cc2)cc1`, the cell number change worked out at 7.53%.

For `COc1ccc2oc(C(=O)OCC(=O)NCC3CCCO3)c(C)c2c1` (centres undefined), the concentration at half-maximal activity (AC50) reads like this: under setting [1], 7.31 µM [rising, single point]; under setting [2], 8.2 µM [rising, partial curve, poor fit].

Turning to `COc1ccc(NC(=O)c2cc(-c3ccco3)nc3ccccc23)cc1S(=O)(=O)N1CCOCC1`, the cell number change is -15.9%. Moreover, the AC50 under setting [1] was 0.651 µM [falling, full curve, poor fit].

Consider `Cc1cccc(-n2c(N)cc(=O)[nH]c2=S)c1C`, for which the cell number change is -3.94%. In addition, under setting [2], the AC50 was 32.6 µM [falling, single point].

With `Cc1c(CC(=O)N2CCC(C(=O)O)CC2)c(=O)oc2cc3c(cc12)CCC1(CCCCC1)O3`, the cell number change was found to be 13%. Also, the concentration at half-maximal activity (AC50) under setting [2] was 6.51 µM [rising, single point].

`Cc1ccc(Oc2ccc(-c3nc(N)nc(N)n3)cc2)cc1C`: the cell number change is -27.3%. Further, the half-maximal activity concentration (AC50) under setting [1] was 3.66 µM [falling, full curve, poor fit]. Also, the concentration at half-maximal activity (AC50) under setting [2] was 29.1 µM [falling, single point].

With `OC(COc1ccccc1)Cn1c2ccccc2c2ccccc21` (centres undefined), the cell number change was -29.3%. Under setting [2], the half-maximal activity concentration (AC50) was 20.6 µM [falling, partial curve].

On to `COc1ccc(N2C(=O)c3ccccc3NC2c2ccc(OC)c(CSc3ccccn3)c2)cc1` (centres undefined), for which the half-maximal activity concentration (AC50) under setting [2] was 2.06 µM [falling, partial curve, poor fit].

In the case of `Cc1ccc(C)c(Oc2ccc(S(=O)(=O)N3CCN(C)CC3)cn2)c1`, the cell number change is -2.09%.

Take `O=S(=O)(Nc1ccncc1)c1ccccc1`: the cell number change is -5.49%. Under setting [2], the AC50 was 29.1 µM [falling, single point].

With `COc1ccc(C(=O)N/N=C/c2ccc(OC)c(COc3ccccc3)c2)cc1`, the cell number change came to 26.5%. In addition, the AC50 under setting [1] is 1.64 µM [falling, partial curve]. For the same compound, under setting [2], the concentration at half-maximal activity (AC50) is 29.1 µM [rising, single point].

Regarding `CCOc1ccc(N2CC(C(=O)Nc3cc(Cl)ccc3-n3cncn3)CC2=O)cc1` (centres undefined), the cell number change came out at 18.3%. Further, the AC50 under setting [1] is 0.92 µM [rising, partial curve, poor fit]. Besides, the AC50 under setting [2] was 6.51 µM [rising, single point].

Regarding `Cc1nc(NC(=O)Nc2ccc(Cl)cc2)sc1C`, the cell number change worked out at 60.1%. Further, under setting [1], the AC50 was 13 µM [rising, partial curve].

On to `O=C1CCCC(NCCCCCCNC2=C([N+](=O)[O-])C(=O)CCC2)=C1[N+](=O)[O-]`, for which the cell number change was -24.1%. The AC50 under setting [1] was 4.11 µM [falling, full curve, poor fit]. Besides, under setting [2], the AC50 is 14.6 µM [falling, partial curve].

In the case of `COc1ccc(Cl)cc1C(=O)O/N=C(\N)c1ccc(Cl)cc1`, the cell number change is -2.73%. Under setting [2], the half-maximal activity concentration (AC50) was 20.6 µM [rising, single point].

Turning to `Cc1ccc2c(c1)N(CC(=O)N1CCCC(C)C1)C(=O)CO2` (centres undefined), the cell number change is 5.13%.

With `CCc1noc(C)c1C(=O)N1CCN(S(=O)(=O)c2ccc(C)cc2)CC1`, the cell number change was 17.7%.

`Cc1sc2ncnc(N3CCOCC3)c2c1C`: the concentration at half-maximal activity (AC50) under setting [2] is 6.51 µM [rising, single point].

On to `O=S(=O)(NCCc1csc(-c2cccnc2)n1)c1ccc2c(c1)OCCO2`, for which the half-maximal activity concentration (AC50) under setting [2] is 6.51 µM [rising, single point].

Consider `Cc1ccc(CNS(=O)(=O)c2ccc3c(c2)n(C)c(=O)n3C)cc1`, for which the cell number change was -16.3%. Further, the concentration at half-maximal activity (AC50) under setting [2] was 20.6 µM [falling, partial curve, poor fit].

As for `Cc1cccc(C)c1N(Cc1ccccc1F)S(C)(=O)=O`, the cell number change was 1.25%.

With `CC(C)(C)c1ccc(S(=O)(=O)N2C=CC(C(F)(F)F)=NCC2)cc1`, the cell number change was -24.7%. Under setting [2], the concentration at half-maximal activity (AC50) is 29.1 µM [rising, single point].

Consider `COCCNC(=O)c1ccccc1-c1ccccc1C(=O)O`, for which the cell number change turned out to be 6.47%. For the same compound, the concentration at half-maximal activity (AC50) under setting [2] was 0.92 µM [falling, full curve, poor fit].

Turning to `Cc1ccc2cc(CCNC(=O)c3cccc([N+](=O)[O-])c3)c(=O)[nH]c2c1C`, the cell number change stood at 32%. The AC50 under setting [1] was 10.3 µM [rising, partial curve].

For the compound `O=C(NCc1ccc(S(=O)(=O)NC2CCCCC2)s1)c1ccccc1`, the cell number change is -7.8%. For the same compound, the AC50 under setting [1] is 0.184 µM [falling, full curve, poor fit]. Also, the AC50 under setting [2] was 0.146 µM [falling, full curve, poor fit].

In the case of `Cn1ncc2c(N3CCN(c4ccc(Cl)c(Cl)c4)CC3)ncnc21`, the cell number change is -7.08%. The concentration at half-maximal activity (AC50) under setting [2] was 16.4 µM [falling, single point].

Regarding `COc1cccc(C2=NOC(C(=O)Nc3ccccc3SC)C2)c1` (centres undefined), the cell number change turned out to be 23.2%. Moreover, the half-maximal activity concentration (AC50) under setting [1] is 0.731 µM [rising, full curve, poor fit]. For the same compound, the concentration at half-maximal activity (AC50) under setting [2] is 6.51 µM [rising, single point].

Take `CN1C(=O)C(Cc2cnc[nH]2)NC1=S` (centres undefined): the cell number change is 6.94%. The AC50 under setting [2] was 29.1 µM [falling, single point].

On to `CC(C)(C)c1ccc(OCCCn2ccnc2)cc1`, for which the cell number change was -70.1%. In addition, the half-maximal activity concentration (AC50) under setting [1] is 20.6 µM [falling, partial curve]. Also, under setting [2], the half-maximal activity concentration (AC50) is 2.31 µM [falling, partial curve].

For the compound `CCCN(CCC)C(=O)c1cc([N+](=O)[O-])cc2c1-c1ccc([N+](=O)[O-])cc1C2=C(C#N)C#N`, the cell number change is 5.92%. Moreover, the AC50 under setting [1] was 0.092 µM [rising, full curve, poor fit].

Take `CN(C)CCCN1C(=O)C(=O)/C(=C(/O)c2ccc3c(c2)OCCO3)C1c1ccco1` (centres undefined): the cell number change was -1.71%. Moreover, the AC50 under setting [2] was 0.00461 µM [falling, full curve, poor fit].

As for `O=C(NC1CCCC1)c1ccc(Cl)s1`, the AC50 under setting [2] was 29.1 µM [rising, single point].

On to `O=C(NCC(c1ccc(F)cc1)N1CCOCC1)c1nn(-c2ccccc2)c(=O)c2ccccc12` (centres undefined), for which the cell number change is -17.1%. Besides, the AC50 under setting [2] is 14.6 µM [falling, partial curve, poor fit].
